Measurements taken from the supplement of paper PMC11150407.
The whole screen tested about 3,000 compounds, of which about 45 (2%) showed an effect of 50% or more. This is one part of the list.

tested on: MOLM1 and UCSD/AML1 (averaged); experiment: cell viability relative to DMSO control (POC); higher = less growth inhibition; settings: 1 µM; 72 h
Description: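 Primary viability screen in the 3q26 EVI1-high AML cell lines MOLM1 and UCSD/AML1, compounds at 1 uM for 72 h. ATP CellTiter-Glo read-out given as percent viable over DMSO control (POC), averaged over duplicates. This mapping covers the TimTec NDL-3000 natural derivative library, whose compounds are identified by TimTec catalogue codes (ST...).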

Row | SMILES | cell viability [%]
1 | Cc1ccc(-n2c(SCc3cc(C)ccc3C)nc3c(=O)[nH]cnc32)cc1 | 93.9
2 | COc1cc(NC(=O)CSc2nc3c(=O)[nH]cnc3n2-c2ccc(C)cc2)cc(OC)c1 | 118
3 | O=c1oc2ccc(Cl)cc2c(-c2cnn(-c3ccccc3)c2)c1-c1ccccc1 | 80.7
4 | COc1ccc2c(c1)c(CC(=O)Nc1cc3oc4ccccc4c3cc1OC)c(C)n2C(=O)c1ccc(Cl)cc1 | 103
5 | COc1cc(/C=N/NC(=O)c2nn(Cc3ccc(Br)cc3)cc2Br)cc(OC)c1OC | 106
6 | O=C(O)/C=C\C(=O)NCC(=O)O | 91.8
7 | Cc1ccc2[nH]c(C)c(CCNS(=O)(=O)c3ccc4c(c3)OCCO4)c2c1 | 99.4
8 | CCCCC(CC)COC(=O)/C=C/c1ccc(OC)cc1 (stereo unspecified) | 98
9 | COC(=O)c1c(NC(=O)CN2CCC3(O)CCCCC3C2c2ccc(O)c(OC)c2)sc2c1CCCC2 (stereo unspecified) | 99.4
10 | O=C(Cn1c(=O)cc(C(=O)N2CCCC2)c2ccccc21)Nc1ccc(F)c(Cl)c1 | 95
11 | CCOc1cc(C(=O)Nc2ccc(OC)c(OC)c2)cc(OCC)c1OCC | 93.4
12 | Cc1[nH]c2ccccc2c1CCNC(=O)c1ccccc1Br | 93.6
13 | CCCNC(=O)c1c(NC(=O)c2ccc3c(c2)OCCO3)cnn1C | 94.6
14 | Cc1ccc(-n2c(SCC(=O)Nc3ccc(F)cc3F)nc3c(=O)[nH]cnc32)cc1 | 108
15 | COc1cc2c(cc1OC)C1=NNC(O)(C(F)(F)C(F)(F)C(F)(F)F)N1C(C)(C)C2 (stereo unspecified) | 97.2
16 | Cc1ccc2oc(-c3ccccc3C)cc(=O)c2c1 | 21.6
17 | CCS(=O)(=O)Nc1cc(OC)c(OC)cc1Cc1nccc2cc(OC)c(OC)cc12 | 95.7
18 | CC1(c2ccccc2)CC(Nc2ccc(I)cc2C(=O)O)C(=O)O1 (stereo unspecified) | 97.4
19 | CCN(CC)c1ccc(C2C3CCCCC3(O)CCN2CC(=O)Nc2ccc(OC)cc2)cc1 (stereo unspecified) | 89.2
20 | CCOC(=O)c1cccc(NC(=O)COc2ccc3c(C)cc(=O)oc3c2)c1 | 104
21 | O=C(O)C1CCCN1C(=O)OCc1ccccc1 (stereo unspecified) | 109
22 | CCN(CC)C(=O)c1cc(=O)n(CC(=O)Nc2ccc(F)c(Cl)c2)c2ccccc12 | 102
23 | COC(=O)c1ccccc1NC(=O)CSc1nc2c(=O)[nH]cnc2n1C | 97.4
24 | COc1cc(/C=N/NC(=O)CNc2n[nH]c(=O)[nH]c2=O)ccc1O | 94.7
25 | Cc1[nH]c2ccccc2c1CCNC(=O)c1c(Cl)cccc1Cl | 94.7
26 | COC(=O)C1=C(N)Oc2c(oc(CO)cc2=O)C1c1ccccc1F (stereo unspecified) | 103

Row | SMILES | cell viability [%]
27 | Cc1ccc(-n2c(SCc3cccc(Cl)c3)nc3c(=O)[nH]cnc32)cc1 | 114
28 | COc1ccc(C(=O)Nc2cccc(C(F)(F)F)c2)cc1OC | 97.9
29 | N[C@@H](CSc1ccccc1)C(=O)O | 97
30 | COC(=O)c1ccc(CSc2nnc(-c3cc(OC)c(OC)c(OC)c3)o2)cc1 | 103
31 | Cc1ccc(-c2oc3ccccc3c(=O)c2OS(=O)(=O)c2ccc(C)cc2)cc1 | 106
32 | COc1cc(OC)cc(C(=O)c2ccc(C(=O)Nc3ccc(Br)c4cccnc34)cc2)c1 | 102
33 | CCn1cnc2cc(NC(=O)c3cc(OC)c(OC)c(OC)c3)ccc2c1=O | 97.8
34 | COc1ccc(-c2ccccc2)cc1 | 105
35 | CN1CCN(c2ccc(/C=C/c3[nH]c(=O)[nH]c(=O)c3[N+](=O)[O-])cc2[N+](=O)[O-])CC1 | 93.2
36 | O=C(CCNc1ccccc1)c1cc2ccccc2oc1=O | 101
37 | CCOC(=O)CCC(=O)NNC(=O)Cc1ccc(Cl)cc1 | 99.2
38 | Cc1ccc(-n2c(SCC(=O)Nc3ccc(Br)cc3F)nc3c(=O)[nH]cnc32)cc1 | 106
39 | COCCn1c(C)c(C(=O)OC)c2cc(O)c3ccccc3c21 | 90.6
40 | COc1cc(OC)c2c(c1)C(=O)N(Cc1ccccc1)C(=O)C2=O | 95.5
41 | COc1cc(C2C(C#N)=C(N)Oc3n[nH]c(C(C)C)c32)cc2c1OCO2 (stereo unspecified) | 93.8
42 | COc1ccc2oc(=O)c(C(=O)NCCc3c(C)[nH]c4ccc(OC(F)(F)F)cc34)cc2c1 | 98.8
43 | COc1cc(C(=O)Sc2ccc(Cl)cc2)cc(OC)c1OC | 93.1
44 | CCc1cccc(NC(=O)CSc2nc3c(=O)[nH]cnc3n2CC)c1 | 95.1
45 | Cc1ccc2[nH]c(C)c(CCNC(=O)c3cc(F)c(F)cc3Cl)c2c1 | 99.2
46 | O=C(O)C(Cc1c[nH]c2ccccc12)NCc1ccccc1F (stereo unspecified) | 101
47 | CCOC(=O)c1ccccc1NC(=O)C(=O)Nc1ccccc1C(=O)OCC | 97.1
48 | COc1ccc(-c2cc(C(F)(F)F)nc(SC3CC(O)C4OCC3O4)n2)cc1OC (stereo unspecified) | 98.4
49 | COc1cccc(-c2nc(CSc3nc4c(=O)[nH]cnc4n3-c3ccc(C)cc3)c(C)o2)c1OC | 110
50 | O=C(O)c1ccc(OCC[n+]2c(CCCc3[nH]c4ccccc4[n+]3CCOc3ccc(C(=O)O)cc3)[nH]c3ccccc32)cc1 | 104
51 | CC(=O)OC1CCC2(C)C(CCC3(C)C2C(=O)C=C2C4CC(C)(C(=O)OCC5CCCO5)CCC4(C)CCC23C)C1(C)C (stereo unspecified) | 85.9
